From patent US9248202B2, “Two-photon probe for detecting copper(II) ion and quantitative estimation of copper(II) ion in human tissue using the same” (Korea University Research and Business Foundation, priority 2014, dated 2016) come the findings set out here.

The data set can be described thus: Fluorescence titration with copper(II) ion (one-photon and two-photon). The data set is classed as binding. On the procedure: Referring to FIG. 3(b), when small increments of copper(II) ion were added to ACCu2 in EtOH/HEPES (9/1 viv, pH=7.0), the TPEF intensity at the channel 2 (Ired) decreased gradually without any appreciable change at the channel 1 (Iblue).
The dissociation constant (Kd) can be calculated using Equation (2): […]
wherein I is the fluorescence intensity, Ifinal is the fluorescence intensity for the CU^2+-ACCu2 complex and Iinitial is the fluorescence intensity for ACCu2.
The dissociation constants (Kd^OP and Kd^TP) of ACCu2 for the OP and TP processes can be calculated from the fluorescence titration curves shown in FIG. 3(b). […] These indicate 1:1 complexation between the probe and the cation.
Referring to FIG. 5(a), the fluorescence intensities of ACCu2 according to the present disclosure measured by the OP (one-photon) and TP (two-photon) processes decreased by 10-fold in the presence of 200 μM of copper(II) ion. […] This means that quantitative measurement of copper(II) ion is possible in this concentration range. Moreover, the Ired/Iblue ratios determined in the two-photon mode were well fitted by the titration curve obtained in the one-photon mode.

Molecules are shown by their SMILES.

`COCCOCCOCCOc1ccc2c(ccc3cc(C(=O)N4CCN(C(=O)c5ccc(CNC(=O)c6cc7cc8ccc(N(C)C)cc8cc7oc6=O)nc5)CC4)c(=O)oc32)c1` [ACCu2]: where the note is “EtOH/HEPES (9:1, pH 7.0)”, the “Job plot maximum, molar fraction” value stood at 0.20. Under “OP and TP processes, ACCu2 3 μM, Cu2+ 0-200 μM”, the “slope of Hill plots for copper(II) ion” value came out at 1.0.
